At least one compound was matched to its structure with a doubt left.
What was measured:
wild type OPCs = test: OPC differentiation, wild type OPCs (MBP/DAPI+ cells/total cells); format: cell-based, mice; settings: 500 nM for 48 hours, vs control
[1] = system: OPCs from estrogen receptor beta (ERβ) null P7 mice; test: OPC differentiation, ERβ null OPCs; format: cell-based; settings: 500 nM for 48 hours, vs control
[2] = system: Human OPCs generated from human ESCs; test: BZA treatment of human ESC-derived OPCs (O4 and MBP staining); format: cell-based; settings: 500 nM, 10 days
[3] = system: OPCs from ERα/ERβ double knockout mice; test: OPC differentiation, ERα/ERβ double knockout OPCs; format: cell-based; settings: ERα/ERβ null, 500 nM for 48 hours, vs control
[4] = system: OPCs derived from WT P7 rat pups; test: Differentiation of isolated OPCs treated with SERMs (MBP/PDGFRα/DAPI immunostaining); format: cell-based; settings: 500 nM for 48 hours
Procedure: Example 3. OPC Differentiation. To assess the effect of selected SERMs on myelination, OPCs were derived from WT P7 rat pups using previously validated methodology, cultured in isolation, and treated with a select group of SERMs at a preliminary concentration of 500 nM for 48 hours. Cells were then permeabilized and immunostained for MBP (oligodendrocytes), PDGFRα (OPCs), and DAPI (cell bodies).

[5] = system: OPCs co-cultured with dorsal root ganglion neurons (DRGs); test: OPC / dorsal root ganglion neuron co-culture myelination; format: cell-based; settings: 500 nM every 3 days, OPC-DRG co-culture, p<0.001
[6] = system: demyelinated lesion in corpus callosum; test: Lysolecithin-induced demyelination of the corpus callosum; format: in vivo; settings: mice, oral gavage 10 mg/kg/day for 7 days, 10 dpl, vs vehicle-treated littermates
Procedure: Example 5. Effects of BZA on OPC Differentiation. Lysolecithin was injected in the corpus callosum of mice and analyzed at 6 days after injection, showing a demyelinated lesion area. Mice were treated with either BZA (10 mg/kg) or vehicle control for 7 days after injection of lysolecithin. Mice were euthanized at 10 days post injection and brains were sectioned and immunostained for myelin oligodendrocyte glycoprotein peptide (MOG), Adenomatous polyposis coli (APC-a maker of mature oligodendrocytes) and Olig2. Quantification of APC-positive cells indicated a 2-fold increase in remyelination in the corpus callosum after treatment with BZA, as depicted in FIG. 3.
Example 6. BZA effects on remyelination kinetics. Toxic, focal demyelinating injury was induced in the corpus callosum of 8-week old adult mice the rate and extent of remyelination was assessed, using previously described methodology. Demyelination was induced by injecting 1 μl of 1% solution of lysolecithin. Essential to this demyelinating model is the timeline for repair, comprising active demyelination [1-3 days post lesion (dpl)], OPC recruitment (3-7 dpl, peaking at 5 dpl), oligodendrocyte differentiation (7-10 dpl) and active remyelination (14-21 dpl). Oligodendrocyte differentiation and remyelination at 10 dpl was analyzed, allowing assessment of BZA effects on the kinetics of myelin repair. […]

[7] = system: OPCs from estrogen receptor alpha (ERα) null P7 mice; test: OPC differentiation, ERα null OPCs; format: cell-based; settings: 500 nM for 48 hours, vs control

## Cc1c(-c2ccc(O)cc2)n(Cc2ccc(OCCN3CCCCCC3)cc2)c2ccc(O)cc12 [BZA, bazedoxifene]
Wild type OPCs
  OPC differentiation (MBP/DAPI+ cells/total cells): significantly enhanced OPC differentiation
[1]
  OPC differentiation (MBP/DAPI+ cells/total cells): significantly enhanced OPC differentiation
[2]
  number of MBP-positive oligodendrocytes: significant increase
[3]
  OPC differentiation (MBP/DAPI+ cells/total cells): significantly enhanced OPC differentiation
[4]
  OPC differentiation: significantly enhanced OPC differentiation
[5]
  OPC differentiation and subsequent myelination: enhanced OPC differentiation and subsequent myelination
[6]
  differentiation and oligodendrocytes in the lesion (MOG and CC1/APC immunostaining): enhanced differentiation and significantly more oligodendrocytes in the lesion
[7]
  OPC differentiation (MBP/DAPI+ cells/total cells): significantly enhanced OPC differentiation
